According to the supplement of paper PMC10849652:
The other results are listed elsewhere or left out.

By UniProt entry, the sequences of proteins in these tests, tags left out. Where a name states a change or a piece, a line headed by the entry shows the natural chain unless it says otherwise.
UniProt Q8NCE0: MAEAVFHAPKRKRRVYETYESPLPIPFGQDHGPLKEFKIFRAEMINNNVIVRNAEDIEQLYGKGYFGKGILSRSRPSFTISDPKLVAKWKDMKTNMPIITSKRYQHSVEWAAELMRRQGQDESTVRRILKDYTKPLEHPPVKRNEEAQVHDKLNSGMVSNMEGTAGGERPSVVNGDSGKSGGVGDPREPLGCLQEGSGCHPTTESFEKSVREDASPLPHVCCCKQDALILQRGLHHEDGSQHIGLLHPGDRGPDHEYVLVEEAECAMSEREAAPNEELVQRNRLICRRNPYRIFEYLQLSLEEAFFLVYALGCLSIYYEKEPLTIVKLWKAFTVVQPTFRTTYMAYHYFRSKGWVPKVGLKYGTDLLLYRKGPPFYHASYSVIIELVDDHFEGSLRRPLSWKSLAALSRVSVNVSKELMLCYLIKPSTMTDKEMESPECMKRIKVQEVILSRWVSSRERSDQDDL
UniProt Q9UNY4: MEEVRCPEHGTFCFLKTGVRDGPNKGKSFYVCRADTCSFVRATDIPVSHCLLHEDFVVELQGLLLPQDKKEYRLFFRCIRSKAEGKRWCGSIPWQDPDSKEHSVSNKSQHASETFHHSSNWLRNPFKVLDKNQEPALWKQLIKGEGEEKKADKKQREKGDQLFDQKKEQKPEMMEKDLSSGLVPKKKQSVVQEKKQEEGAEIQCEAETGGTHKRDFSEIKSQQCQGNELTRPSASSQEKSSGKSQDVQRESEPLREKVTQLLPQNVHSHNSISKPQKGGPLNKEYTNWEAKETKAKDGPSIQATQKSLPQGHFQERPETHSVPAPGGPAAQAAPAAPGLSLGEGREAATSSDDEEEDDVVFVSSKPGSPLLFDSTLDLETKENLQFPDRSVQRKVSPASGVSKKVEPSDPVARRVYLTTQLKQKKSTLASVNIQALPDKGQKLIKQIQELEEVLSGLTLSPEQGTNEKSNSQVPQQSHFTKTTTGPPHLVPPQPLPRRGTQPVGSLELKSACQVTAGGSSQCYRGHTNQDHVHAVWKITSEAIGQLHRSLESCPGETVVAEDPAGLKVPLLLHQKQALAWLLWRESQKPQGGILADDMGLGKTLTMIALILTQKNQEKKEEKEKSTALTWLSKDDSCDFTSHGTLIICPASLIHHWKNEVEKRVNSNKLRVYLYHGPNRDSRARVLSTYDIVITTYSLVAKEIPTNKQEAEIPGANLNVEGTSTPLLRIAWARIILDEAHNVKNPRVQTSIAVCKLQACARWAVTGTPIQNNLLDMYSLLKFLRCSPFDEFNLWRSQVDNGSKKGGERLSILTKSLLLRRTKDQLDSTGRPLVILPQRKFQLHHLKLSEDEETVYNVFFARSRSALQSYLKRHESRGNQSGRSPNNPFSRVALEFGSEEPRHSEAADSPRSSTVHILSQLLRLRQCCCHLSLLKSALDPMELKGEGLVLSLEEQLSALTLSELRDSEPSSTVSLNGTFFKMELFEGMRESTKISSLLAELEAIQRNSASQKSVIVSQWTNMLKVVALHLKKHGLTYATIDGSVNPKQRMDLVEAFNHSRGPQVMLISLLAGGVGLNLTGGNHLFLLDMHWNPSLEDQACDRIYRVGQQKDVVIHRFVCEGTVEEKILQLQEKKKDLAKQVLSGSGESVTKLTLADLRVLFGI
UniProt Q96AE7: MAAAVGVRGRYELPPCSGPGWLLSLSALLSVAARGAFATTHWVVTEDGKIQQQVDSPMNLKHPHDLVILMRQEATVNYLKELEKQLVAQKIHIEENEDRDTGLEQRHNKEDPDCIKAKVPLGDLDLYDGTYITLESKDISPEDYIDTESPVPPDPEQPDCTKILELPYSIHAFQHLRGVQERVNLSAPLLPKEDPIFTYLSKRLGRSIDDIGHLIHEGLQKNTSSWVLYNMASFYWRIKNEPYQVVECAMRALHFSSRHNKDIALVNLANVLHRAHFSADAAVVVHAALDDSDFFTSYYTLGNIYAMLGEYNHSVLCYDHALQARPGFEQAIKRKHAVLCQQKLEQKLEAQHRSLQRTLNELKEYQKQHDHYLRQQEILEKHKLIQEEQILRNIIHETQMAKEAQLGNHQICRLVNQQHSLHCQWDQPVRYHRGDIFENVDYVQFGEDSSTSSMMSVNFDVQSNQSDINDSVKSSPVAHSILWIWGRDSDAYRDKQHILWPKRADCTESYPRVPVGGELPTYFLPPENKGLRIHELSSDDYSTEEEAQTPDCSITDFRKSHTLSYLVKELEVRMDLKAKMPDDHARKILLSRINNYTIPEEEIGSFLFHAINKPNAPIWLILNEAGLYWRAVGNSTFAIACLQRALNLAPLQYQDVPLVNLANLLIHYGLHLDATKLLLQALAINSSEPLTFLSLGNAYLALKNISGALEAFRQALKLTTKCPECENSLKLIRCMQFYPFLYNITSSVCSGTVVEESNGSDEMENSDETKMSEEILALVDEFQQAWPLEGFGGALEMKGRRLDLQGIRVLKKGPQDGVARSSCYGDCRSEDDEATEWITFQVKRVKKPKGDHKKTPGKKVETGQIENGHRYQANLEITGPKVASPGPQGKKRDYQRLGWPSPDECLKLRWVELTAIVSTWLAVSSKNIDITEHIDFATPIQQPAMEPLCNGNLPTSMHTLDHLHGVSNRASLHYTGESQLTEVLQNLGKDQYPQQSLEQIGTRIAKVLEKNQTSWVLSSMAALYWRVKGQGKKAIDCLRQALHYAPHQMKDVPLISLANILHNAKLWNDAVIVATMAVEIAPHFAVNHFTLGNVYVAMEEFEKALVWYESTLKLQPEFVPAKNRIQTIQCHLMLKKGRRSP
UniProt O43617, whole entry, looked up: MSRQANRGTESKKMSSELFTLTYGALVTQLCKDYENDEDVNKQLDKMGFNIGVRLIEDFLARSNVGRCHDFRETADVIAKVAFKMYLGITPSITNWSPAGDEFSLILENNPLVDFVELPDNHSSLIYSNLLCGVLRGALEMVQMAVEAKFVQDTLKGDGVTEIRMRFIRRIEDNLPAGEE
UniProt Q9Y5R8, whole entry, looked up: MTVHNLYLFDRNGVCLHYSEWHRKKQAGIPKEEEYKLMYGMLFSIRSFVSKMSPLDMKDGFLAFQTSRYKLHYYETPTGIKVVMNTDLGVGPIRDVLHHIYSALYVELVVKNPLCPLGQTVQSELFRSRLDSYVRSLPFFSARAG
UniProt Q15650: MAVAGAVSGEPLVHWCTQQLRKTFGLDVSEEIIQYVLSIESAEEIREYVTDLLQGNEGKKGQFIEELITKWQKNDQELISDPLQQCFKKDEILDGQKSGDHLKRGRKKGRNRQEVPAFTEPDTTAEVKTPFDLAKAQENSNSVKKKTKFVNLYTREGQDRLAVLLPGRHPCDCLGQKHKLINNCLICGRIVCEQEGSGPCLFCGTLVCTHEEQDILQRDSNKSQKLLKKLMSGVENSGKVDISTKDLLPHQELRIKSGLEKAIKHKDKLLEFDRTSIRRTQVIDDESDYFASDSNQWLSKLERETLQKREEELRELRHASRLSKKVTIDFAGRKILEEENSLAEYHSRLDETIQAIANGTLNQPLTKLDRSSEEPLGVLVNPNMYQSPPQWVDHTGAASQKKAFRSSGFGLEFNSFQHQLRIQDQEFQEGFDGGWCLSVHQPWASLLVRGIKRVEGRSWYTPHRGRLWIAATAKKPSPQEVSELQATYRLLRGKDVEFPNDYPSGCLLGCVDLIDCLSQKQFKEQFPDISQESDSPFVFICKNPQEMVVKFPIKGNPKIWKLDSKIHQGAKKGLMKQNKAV
UniProt Q16762: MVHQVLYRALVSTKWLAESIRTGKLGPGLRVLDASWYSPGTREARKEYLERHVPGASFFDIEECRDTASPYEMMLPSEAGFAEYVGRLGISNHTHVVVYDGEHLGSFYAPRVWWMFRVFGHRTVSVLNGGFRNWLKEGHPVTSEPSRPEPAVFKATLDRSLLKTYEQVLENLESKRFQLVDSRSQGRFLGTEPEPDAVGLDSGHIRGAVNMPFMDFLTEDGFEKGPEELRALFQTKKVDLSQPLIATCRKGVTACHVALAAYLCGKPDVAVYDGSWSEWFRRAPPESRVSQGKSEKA
UniProt Q9Y5S1: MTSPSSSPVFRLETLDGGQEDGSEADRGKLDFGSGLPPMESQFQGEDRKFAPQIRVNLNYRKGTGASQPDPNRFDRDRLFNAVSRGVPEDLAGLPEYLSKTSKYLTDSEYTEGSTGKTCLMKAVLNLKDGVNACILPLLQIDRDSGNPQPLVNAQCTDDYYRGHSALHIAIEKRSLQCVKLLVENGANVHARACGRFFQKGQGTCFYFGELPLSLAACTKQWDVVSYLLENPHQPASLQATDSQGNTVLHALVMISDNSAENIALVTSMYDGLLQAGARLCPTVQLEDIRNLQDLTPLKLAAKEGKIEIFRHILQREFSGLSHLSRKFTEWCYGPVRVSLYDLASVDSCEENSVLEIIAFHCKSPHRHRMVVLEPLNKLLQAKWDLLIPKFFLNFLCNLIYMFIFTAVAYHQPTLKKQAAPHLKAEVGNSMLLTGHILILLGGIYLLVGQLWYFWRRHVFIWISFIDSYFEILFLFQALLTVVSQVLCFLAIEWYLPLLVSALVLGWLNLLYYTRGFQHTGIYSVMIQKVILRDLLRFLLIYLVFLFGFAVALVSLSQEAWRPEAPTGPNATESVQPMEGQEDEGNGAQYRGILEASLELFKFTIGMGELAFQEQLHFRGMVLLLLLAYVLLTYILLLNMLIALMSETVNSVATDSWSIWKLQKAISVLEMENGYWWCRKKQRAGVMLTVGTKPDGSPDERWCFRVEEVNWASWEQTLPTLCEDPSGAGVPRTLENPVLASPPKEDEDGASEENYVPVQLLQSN
UniProt Q14166: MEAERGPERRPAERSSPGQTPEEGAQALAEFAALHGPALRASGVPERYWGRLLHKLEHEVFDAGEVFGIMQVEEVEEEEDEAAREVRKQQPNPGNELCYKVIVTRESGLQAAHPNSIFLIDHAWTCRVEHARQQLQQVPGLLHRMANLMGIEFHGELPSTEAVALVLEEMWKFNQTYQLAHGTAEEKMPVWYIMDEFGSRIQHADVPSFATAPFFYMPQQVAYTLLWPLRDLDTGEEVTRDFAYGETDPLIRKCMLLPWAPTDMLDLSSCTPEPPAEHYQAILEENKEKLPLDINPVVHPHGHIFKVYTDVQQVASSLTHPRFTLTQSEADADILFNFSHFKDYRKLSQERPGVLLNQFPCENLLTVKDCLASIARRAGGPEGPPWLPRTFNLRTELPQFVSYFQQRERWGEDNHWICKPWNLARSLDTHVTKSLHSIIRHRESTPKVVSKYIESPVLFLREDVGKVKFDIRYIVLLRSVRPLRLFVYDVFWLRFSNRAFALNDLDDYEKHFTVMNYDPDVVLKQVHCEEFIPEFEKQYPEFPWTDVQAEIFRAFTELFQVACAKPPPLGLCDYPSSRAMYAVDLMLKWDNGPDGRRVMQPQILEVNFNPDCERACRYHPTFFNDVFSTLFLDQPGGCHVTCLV
UniProt Q9UPN9: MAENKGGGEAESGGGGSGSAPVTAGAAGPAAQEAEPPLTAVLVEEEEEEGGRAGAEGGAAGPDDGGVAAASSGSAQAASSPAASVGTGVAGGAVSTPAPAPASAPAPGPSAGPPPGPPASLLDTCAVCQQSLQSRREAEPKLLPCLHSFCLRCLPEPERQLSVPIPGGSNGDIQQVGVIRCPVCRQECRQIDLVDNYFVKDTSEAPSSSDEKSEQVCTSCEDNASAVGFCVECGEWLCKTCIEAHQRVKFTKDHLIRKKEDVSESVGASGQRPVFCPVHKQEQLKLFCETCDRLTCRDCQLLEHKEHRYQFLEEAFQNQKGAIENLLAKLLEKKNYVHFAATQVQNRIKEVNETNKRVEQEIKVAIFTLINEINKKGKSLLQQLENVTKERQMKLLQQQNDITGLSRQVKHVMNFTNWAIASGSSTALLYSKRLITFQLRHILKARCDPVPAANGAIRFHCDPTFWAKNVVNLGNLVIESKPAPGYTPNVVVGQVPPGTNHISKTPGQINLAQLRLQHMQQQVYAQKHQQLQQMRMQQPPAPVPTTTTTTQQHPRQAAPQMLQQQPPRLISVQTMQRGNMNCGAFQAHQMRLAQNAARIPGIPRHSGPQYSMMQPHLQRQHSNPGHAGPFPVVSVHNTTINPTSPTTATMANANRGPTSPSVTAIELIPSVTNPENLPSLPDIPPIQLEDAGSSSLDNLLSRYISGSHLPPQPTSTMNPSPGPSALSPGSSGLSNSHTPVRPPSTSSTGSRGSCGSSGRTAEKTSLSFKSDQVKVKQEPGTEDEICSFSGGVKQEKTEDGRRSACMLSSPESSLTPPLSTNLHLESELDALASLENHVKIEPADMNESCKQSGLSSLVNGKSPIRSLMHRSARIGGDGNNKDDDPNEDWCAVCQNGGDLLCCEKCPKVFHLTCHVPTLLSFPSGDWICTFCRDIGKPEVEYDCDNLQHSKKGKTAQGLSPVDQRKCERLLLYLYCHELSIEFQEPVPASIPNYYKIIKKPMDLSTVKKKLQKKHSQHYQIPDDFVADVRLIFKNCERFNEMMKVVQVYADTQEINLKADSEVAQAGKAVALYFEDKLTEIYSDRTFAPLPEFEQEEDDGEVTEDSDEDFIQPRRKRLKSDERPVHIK

What was measured:
Test in all cases: log2 fold change, soluble protein after heating vs DMSO (PISA); higher = thermal stabilisation; K562 lysate, 10 uM; active = over 0.2 and 3.5 SD of the protein, either way, in both replicates (recomputed)
vemurafenib = compound: CCCS(=O)(=O)Nc1ccc(F)c(C(=O)c2c[nH]c3ncc(-c4ccc(Cl)cc4)cc23)c1F [vemurafenib]
In short: (§1)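 Quantification was by TMTpro 16plex LC-MS/MS with equalised channel sums, applied to the supernatant after 21,000xg for 90 min. Samples were crude K562 extract at 1 mg/mL protein in PBS pH 7.4 with 1 mM MgCl2, treated with 10 μM compound for 30 min, heated for 3 min across 48°C-58°C, pooled and brought to 0.5% NP-40 at 4°C. Values are log-two fold changes in thermal stability relative to solvent controls, from duplicates.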

[1] = compound: CCCS(=O)(=O)Nc1ccc(F)c(C(=O)c2c[nH]c3ncc(Cl)cc23)c1F
In short: as §1

barasertib = compound: CCN(CCCOc1ccc2c(Nc3cc(CC(=O)Nc4cccc(F)c4)[nH]n3)ncnc2c1)CCOP(=O)(O)O [barasertib]
In short: as §1

[2] = compound: CC[C@@H]1C(=O)N(C)c2cnc(Nc3ccc(C(=O)NC4CCN(C)CC4)cc3OC)nc2N1C1CCCC1
In short: as §1

volasertib = compound: CC[C@@H]1C(=O)N(C)c2cnc(Nc3ccc(C(=O)N[C@H]4CC[C@H](N5CCN(CC6CC6)CC5)CC4)cc3OC)nc2N1C(C)C [volasertib]
In short: as §1

[3] = compound: CCn1c(C(=O)N(C2CC2)C2CC2)cc2c3c(ncn3C)c(Nc3cc(C)n(C)n3)nc21
In short: as §1

[4] = compound: CCn1cc(-c2ccnc3[nH]c(-c4cccc(CN(C)C)c4)cc23)c(-c2ccc(NC(=O)N(C)C)cc2)n1
In short: as §1

[5] = compound: CN1CCC(CNc2ccc3ncc(-c4cccc(OC(F)(F)F)c4)n3n2)CC1
In short: as §1

saracatinib = compound: CN1CCN(CCOc2cc(OC3CCOCC3)c3c(Nc4c(Cl)ccc5c4OCO5)ncnc3c2)CC1 [saracatinib]
In short: as §1

sotrastaurin = compound: CN1CCN(c2nc(C3=C(c4c[nH]c5ccccc45)C(=O)NC3=O)c3ccccc3n2)CC1 [sotrastaurin]
In short: as §1

alvocidib = compound: CN1CC[C@H](c2c(O)cc(O)c3c(=O)cc(-c4ccccc4Cl)oc23)[C@H](O)C1 [alvocidib]
In short: as §1

Tubastatin A = compound: CN1CCc2c(c3ccccc3n2Cc2ccc(C(=O)NO)cc2)C1 [Tubastatin A]
In short: as §1

[6] = compound: CNC(=O)C1=CC=CC=C1NC2=NC(=NC=C2Cl)NC3=C(C=C(C=C3)N4CCOCC4)OC
In short: as §1

defactinib = compound: CNC(=O)c1ccc(Nc2ncc(C(F)(F)F)c(NCc3nccnc3N(C)S(C)(=O)=O)n2)cc1 [defactinib]
In short: as §1

[7] = compound: CNc1nc(-c2ccc3c(N)n[nH]c3c2)cc(N2C[C@@H](C(=O)NC3CCCCC3)CC[C@H]2C)n1
In short: as §1

encorafenib = compound: COC(=O)N[C@@H](C)CNc1nccc(-c2cn(C(C)C)nc2-c2cc(Cl)cc(NS(C)(=O)=O)c2F)n1 [encorafenib]
In short: as §1

[8] = compound: COC(=O)[C@H](CCSC)NC(=O)C1=C(C=C(C=C1)NC[C@H](CS)N)C2=CC=CC=C2
In short: as §1

alisertib = compound: COc1cc(Nc2ncc3c(n2)-c2ccc(Cl)cc2C(c2c(F)cccc2OC)=NC3)ccc1C(=O)O [alisertib]
In short: as §1

[9] = compound: COc1cc2nc(-c3cc(F)ccc3O)nc(N[C@@H]3CNC[C@H]3C(C)(C)O)c2cc1OC
In short: as §1

gefitinib = compound: COc1cc2ncnc(Nc3ccc(F)c(Cl)c3)c2cc1OCCCN1CCOCC1 [gefitinib]
In short: as §1

Measured: log2 fold change

TRIM33 (UniProt H0Y612)
inactive: vemurafenib 0.012 | [1] 0.007 | barasertib 0.087 | [2] 0.018 | volasertib 0.012 | [3] 0.093 | [4] -0.017 | [5] 0.051 | saracatinib -0.078 | sotrastaurin 0.006 | alvocidib -0.081 | Tubastatin A -0.034 | [6] 0.119 | defactinib -0.007 | [7] 0.075 | encorafenib 0.014 | [8] 0.122 | alisertib -0.006 | [9] 0.09 | gefitinib -0.102

TRAPPC13 isoform 4 (UniProt A5PLN9)
inactive: vemurafenib 0.005 | [1] 0.032 | barasertib 0.032 | [2] -0.027 | volasertib -0.047 | [3] -0.001 | [4] -0.056 | [5] 0.04 | saracatinib 0.01 | sotrastaurin -0.067 | alvocidib -0.003 | Tubastatin A -0.078 | [6] 0.06 | defactinib 0.084 | [7] 0.083 | encorafenib -0.008 | [8] -0.038 | alisertib 0.009 | [9] 0.035 | gefitinib 0.041

TSTA3 (UniProt Q13630)
inactive: vemurafenib 0.034 | [1] -0.006 | barasertib -0.02 | [2] -0.077 | volasertib -0.005 | [3] -0.028 | [4] -0.02 | [5] 0.027 | saracatinib 0.025 | sotrastaurin -0.013 | alvocidib -0.009 | Tubastatin A 0.046 | [6] -0.01 | defactinib -0.001 | [7] 0.047 | encorafenib -0.029 | [8] 0.167 | alisertib 0.014 | [9] 0.008 | gefitinib 0.012

TSEN2 (UniProt Q8NCE0)
inactive: vemurafenib -0.033 | [1] 0.034 | barasertib 0.022 | [2] -0.066 | volasertib -0.064 | [3] -0.017 | [4] -0.025 | [5] 0.024 | saracatinib 0.023 | sotrastaurin 0.016 | alvocidib -0.071 | Tubastatin A -0.02 | [6] 0.026 | defactinib -0.033 | [7] 0.028 | encorafenib -0.014 | [8] 0.077 | alisertib 0.004 | [9] 0.028 | gefitinib -0.009

TRMT10C (UniProt Q7L0Y3)
inactive: vemurafenib 0.009 | [1] 0.015 | barasertib -0.042 | [2] -0.056 | volasertib -0.03 | [3] 0.006 | [4] 0.052 | [5] -0.02 | saracatinib -0.018 | sotrastaurin 0.026 | alvocidib 0.041 | Tubastatin A -0.086 | [6] 0.043 | defactinib -0.048 | [7] -0.007 | encorafenib -0.014 | [8] 0.033 | alisertib 0 | [9] -0.009 | gefitinib -0.013

TRMT1L (UniProt Q7Z2T5)
inactive: vemurafenib 0.021 | [1] 0.02 | barasertib 0.025 | [2] -0.067 | volasertib -0.018 | [3] 0.013 | [4] -0.084 | [5] 0.082 | saracatinib 0.023 | sotrastaurin 0.037 | alvocidib -0.041 | Tubastatin A -0.082 | [6] -0.003 | defactinib 0.04 | [7] -0.035 | encorafenib 0.039 | [8] 0.013 | alisertib -0.042 | [9] 0.002 | gefitinib -0.035

TTF2 (UniProt Q9UNY4)
inactive: vemurafenib 0.008 | [1] 0.037 | barasertib 0.027 | [2] -0.028 | volasertib 0.022 | [3] 0.003 | [4] -0.003 | [5] -0.026 | saracatinib 0.025 | sotrastaurin 0.024 | alvocidib -0.018 | Tubastatin A -0.055 | [6] 0.05 | defactinib 0.069 | [7] 0.005 | encorafenib -0.018 | [8] -0.01 | alisertib 0.005 | [9] 0.056 | gefitinib 0.002

TSSC4 (UniProt Q9Y5U2)
inactive: vemurafenib 0.008 | [1] -0.013 | barasertib -0.016 | [2] 0.071 | volasertib -0.005 | [3] 0.014 | [4] -0.096 | [5] 0.022 | saracatinib -0.086 | sotrastaurin -0.004 | alvocidib -0.015 | Tubastatin A 0.066 | [6] 0.028 | defactinib 0.031 | [7] 0.062 | encorafenib 0.061 | [8] -0.098 | alisertib 0.077 | [9] 0.009 | gefitinib 0.089

TTC17 (UniProt Q96AE7)
inactive: vemurafenib -0.033 | [1] -0.038 | barasertib 0.142 | [2] -0.003 | volasertib 0.072 | [3] -0.034 | [4] -0.029 | [5] 0.09 | saracatinib 0.092 | sotrastaurin 0.027 | alvocidib -0.025 | Tubastatin A 0.032 | [6] 0.074 | defactinib -0.039 | [7] 0.046 | encorafenib 0.118 | [8] -0.012 | alisertib -0.07 | [9] 0.041 | gefitinib 0.014

4 consecutive records out of the list so far, for reference:
TSTA3 (UniProt Q13630)
inactive: vemurafenib 0.034 | [1] -0.006 | barasertib -0.02 | [2] -0.077 | volasertib -0.005 | [3] -0.028 | [4] -0.02 | [5] 0.027 | saracatinib 0.025 | sotrastaurin -0.013 | alvocidib -0.009 | Tubastatin A 0.046 | [6] -0.01 | defactinib -0.001 | [7] 0.047 | encorafenib -0.029 | [8] 0.167 | alisertib 0.014 | [9] 0.008 | gefitinib 0.012

TSEN2 (UniProt Q8NCE0)
inactive: vemurafenib -0.033 | [1] 0.034 | barasertib 0.022 | [2] -0.066 | volasertib -0.064 | [3] -0.017 | [4] -0.025 | [5] 0.024 | saracatinib 0.023 | sotrastaurin 0.016 | alvocidib -0.071 | Tubastatin A -0.02 | [6] 0.026 | defactinib -0.033 | [7] 0.028 | encorafenib -0.014 | [8] 0.077 | alisertib 0.004 | [9] 0.028 | gefitinib -0.009

TRMT10C (UniProt Q7L0Y3)
inactive: vemurafenib 0.009 | [1] 0.015 | barasertib -0.042 | [2] -0.056 | volasertib -0.03 | [3] 0.006 | [4] 0.052 | [5] -0.02 | saracatinib -0.018 | sotrastaurin 0.026 | alvocidib 0.041 | Tubastatin A -0.086 | [6] 0.043 | defactinib -0.048 | [7] -0.007 | encorafenib -0.014 | [8] 0.033 | alisertib 0 | [9] -0.009 | gefitinib -0.013

TRMT1L (UniProt Q7Z2T5)
inactive: vemurafenib 0.021 | [1] 0.02 | barasertib 0.025 | [2] -0.067 | volasertib -0.018 | [3] 0.013 | [4] -0.084 | [5] 0.082 | saracatinib 0.023 | sotrastaurin 0.037 | alvocidib -0.041 | Tubastatin A -0.082 | [6] -0.003 | defactinib 0.04 | [7] -0.035 | encorafenib 0.039 | [8] 0.013 | alisertib -0.042 | [9] 0.002 | gefitinib -0.035

(list continues)

TRAPPC3 (UniProt O43617)
inactive: vemurafenib 0.005 | [1] -0.02 | barasertib 0.1 | [2] -0.046 | volasertib 0.042 | [3] 0.071 | [4] -0.025 | [5] -0.001 | saracatinib -0.019 | sotrastaurin 0.036 | alvocidib 0.028 | Tubastatin A -0.003 | [6] 0.023 | defactinib 0.027 | [7] -0.11 | encorafenib -0.01 | [8] 0.032 | alisertib 0.019 | [9] -0.037 | gefitinib 0.016

TRAPPC1 (UniProt Q9Y5R8)
inactive: vemurafenib -0.029 | [1] 0.022 | barasertib 0.156 | [2] 0.064 | volasertib 0.009 | [3] -0.032 | [4] -0.035 | [5] 0.068 | saracatinib -0.051 | sotrastaurin -0.034 | alvocidib -0.009 | Tubastatin A 0 | [6] -0.011 | defactinib 0.062 | [7] 0 | encorafenib 0.047 | [8] -0.012 | alisertib -0.046 | [9] 0.022 | gefitinib -0.005

TRIP4 (UniProt Q15650)
inactive: vemurafenib 0.097 | [1] 0.058 | barasertib 0.018 | [2] -0.004 | volasertib -0.056 | [3] -0.024 | [4] -0.054 | [5] 0.013 | saracatinib 0.026 | sotrastaurin -0.017 | alvocidib -0.01 | Tubastatin A -0.027 | [6] 0.004 | defactinib -0.171 | [7] 0.066 | encorafenib 0.003 | [8] -0.073 | alisertib -0.006 | [9] 0 | gefitinib -0.037

TST (UniProt Q16762)
inactive: vemurafenib 0.109 | [1] 0.031 | barasertib -0.013 | [2] 0.021 | volasertib 0.005 | [3] -0.097 | [4] 0.029 | [5] -0.016 | saracatinib -0.034 | sotrastaurin 0.004 | alvocidib -0.001 | Tubastatin A 0.047 | [6] 0.018 | defactinib -0.013 | [7] -0.046 | encorafenib -0.025 | [8] -0.049 | alisertib 0.014 | [9] -0.027 | gefitinib -0.034

TRPV2 (UniProt Q9Y5S1)
inactive: vemurafenib -0.04 | [1] 0.026 | barasertib 0.03 | [2] -0.044 | volasertib 0.028 | [3] 0.013 | [4] -0.083 | [5] 0.086 | saracatinib 0.051 | sotrastaurin -0.002 | alvocidib -0.075 | Tubastatin A 0.042 | [6] 0.014 | defactinib 0.014 | [7] 0.033 | encorafenib 0.005 | [8] -0.018 | alisertib -0.031 | [9] 0.013 | gefitinib -0.053

TTLL12 (UniProt Q14166)
inactive: vemurafenib 0.016 | [1] 0.007 | barasertib -0.001 | [2] -0.07 | volasertib -0.07 | [3] 0.019 | [4] -0.033 | [5] 0.009 | saracatinib 0.004 | sotrastaurin 0.022 | alvocidib 0.039 | Tubastatin A -0.212 | [6] -0.003 | defactinib 0.018 | [7] -0.03 | encorafenib -0.009 | [8] 0.032 | alisertib 0 | [9] 0.003 | gefitinib 0.039

TRIM33 isoform 2 (UniProt Q9UPN9)
inactive: vemurafenib -0.018 | [1] -0.003 | barasertib 0.009 | [2] -0.008 | volasertib -0.039 | [3] 0.023 | [4] -0.132 | [5] 0.05 | saracatinib 0.027 | sotrastaurin 0.043 | alvocidib -0.029 | Tubastatin A -0.131 | [6] 0.016 | defactinib -0.001 | [7] -0.006 | encorafenib 0.006 | [8] 0.052 | alisertib -0.003 | [9] 0.046 | gefitinib 0.005
